# Data taken from the supplement of paper PMC12889115.
# The other results are listed elsewhere or left out. Values are raw readings; no control value is given beside them.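 Primary screen: polymyxin B was added at a level permeabilizing Salmonella outer membranes while sparing inner membranes. DMSO wells, both with and without polymyxin B, established maximum growth. Plate-to-plate variation meant each plate was ranked on its own, and the lowest-OD600 compounds were selected as hits.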
# Tested on: Salmonella enterica serovar Typhimurium SL1344
# Assay: bacterial growth OD600 after 18 h with compound and polymyxin B; higher = more bacterial growth (less inhibition)
# Details: 50 µM, Mueller-Hinton broth
SMILES,bacterial growth OD600 (polymyxin B 0.75 µg/mL),bacterial growth OD600 (polymyxin B 1 µg/mL)
COCCN1C(=O)CC(CC(=O)N2CCN(c3ccc(C)cc3C)CC2)(c2cccc(OC)c2)C1=O (stereo unspecified),0.19,–
COc1ccc(-n2ncc3c2CC(C)(C)CC3NC(=O)CSc2ncccn2)cc1 (stereo unspecified),–,0.961
CN(Cc1cn(C)nc1-c1ccc2c(c1)OCCO2)Cc1cccc2ncccc12,–,0
Cc1ccccc1-c1cn2c(C(=O)N(C)C(C)c3ccccn3)csc2n1 (stereo unspecified),–,1.15
O=C(CCC1CCCN(C2CCSCC2)C1)Nc1ccccc1F (stereo unspecified),–,0.853
O=C(CCC1CCN(Cc2cccn2-c2nccs2)CC1)NCc1cccnc1,–,0.95
COc1ccc(CCC2CCCN(C(=O)c3cc(C)nc(C)n3)C2)cc1 (stereo unspecified),0.821,–
COCc1ccc(C(=O)NCc2c(C)ncc3c2CCN(C(=O)c2ccc(OC)c(F)c2)C3)o1,0.866,–
COCC(=O)Nc1cc(C(=O)N2CCN(c3ccccc3)CC2)cc2ncn(CCc3ccccc3)c12,0.802,–
CCNC(=O)NC(C)c1cnc(N(C)C2CCCCC2)nc1C (stereo unspecified),0.848,–
O=C(CCC1CCN(C(=O)c2ccc3c(c2)OCO3)CC1)NCc1cccnc1,–,0.993
COc1ccc(F)c(CC2(CCC(=O)N3CCCCC3c3ccccn3)CCC(=O)N2)c1 (stereo unspecified),0.824,–
O=C1CC[C@@H](CN(Cc2ccccc2)C(=O)c2cc(C(c3ccccc3)c3ccccc3)no2)N1,0,–
CC(C)CCCC1CN(C(=O)CN2CCCC2=O)CCO1 (stereo unspecified),–,0.971
COCCC1CCCCN1C(=O)c1cc(NC(=O)C2CCCCC2)cc2ncn(CCOC)c12 (stereo unspecified),0.935,–
COC(=O)CCNC(=O)c1cc(Cl)ccc1OC1CCN(C(C)=O)CC1,–,0.98

SMILES,bacterial growth OD600 (polymyxin B 0.75 µg/mL),bacterial growth OD600 (polymyxin B 1 µg/mL)
Cc1oc(-c2cc(F)cc(F)c2)nc1CN1CCOCC1,0.808,–
CC(C)N(CC1CCC(=O)N1)C(=O)c1ccc2oc(CCCc3ccccc3)nc2c1 (stereo unspecified),–,0.999
CN(C)S(=O)(=O)N1CCC2(CCCN(CC3CCCCC3)C2=O)C1 (stereo unspecified),–,0.604
CC(O)(COc1ccccc1)c1ccc2c(c1)CN(Cc1ccc(F)cc1)CCO2 (stereo unspecified),0.007,–
O=C(N[C@H]1CCCCNC1=O)c1coc(COc2ccc(F)cc2)n1,–,0.946
CCN(Cc1nccn1C)C(=O)c1ccc(N2CCC(OC)CC2)nc1,–,0.962
O=C1N(Cc2ccccc2F)CCCC1(O)CNC1CCC1 (stereo unspecified),–,0.96
CN(Cc1ccccc1)C1(C(=O)N2CCC(C(N)=O)CC2)Cc2ccccc2C1,–,1.21
CC(C)c1nccn1Cc1cc(C(=O)NCc2cc(C(C)(C)C)[nH]n2)n[nH]1,–,1.01
Cc1noc(C)c1C(=O)NC1CC(=O)N(Cc2cccc(F)c2)C1 (stereo unspecified),–,0.939
O=C(CCCc1ccccc1)Nc1cccc(N2CCC(NC3CCOC3)CC2)c1 (stereo unspecified),0.867,–
O=C(NCC(c1ccc(F)cc1)N1CCCC1)c1ccc2nc(C3CC3)oc2c1 (stereo unspecified),–,0.815
Cc1ccccc1CN1C[C@@H]2C[C@@H](c3cc(CC(C)C)[nH]n3)N3CCC[C@@]23C1=O,–,-0.002
CN(C(=O)c1ccn(C)n1)C(Cc1ccccc1)C1CCN(C(=O)Cc2ccccc2F)CC1 (stereo unspecified),0.878,–
Cc1cccc(CNC(=O)C2CC23CCN(C(=O)CSc2ccccc2)CC3)n1 (stereo unspecified),0.899,–

# Full records from above:
# O=C1N(Cc2ccccc2F)CCCC1(O)CNC1CCC1 (stereo unspecified) is listed with bacterial growth OD600 (polymyxin B 1 µg/mL): 0.96
# O=C(N[C@H]1CCCCNC1=O)c1coc(COc2ccc(F)cc2)n1 is listed with bacterial growth OD600 (polymyxin B 1 µg/mL): 0.946
